No constants are given. Whether binding was seen depends on the method and setting. In cells and extracts the contact can be indirect. Some binding calls cover weakened binding; strength is not graded here.

The target in one test is T1, FBXO3 (UniProt Q9UK99).
T1 sequence: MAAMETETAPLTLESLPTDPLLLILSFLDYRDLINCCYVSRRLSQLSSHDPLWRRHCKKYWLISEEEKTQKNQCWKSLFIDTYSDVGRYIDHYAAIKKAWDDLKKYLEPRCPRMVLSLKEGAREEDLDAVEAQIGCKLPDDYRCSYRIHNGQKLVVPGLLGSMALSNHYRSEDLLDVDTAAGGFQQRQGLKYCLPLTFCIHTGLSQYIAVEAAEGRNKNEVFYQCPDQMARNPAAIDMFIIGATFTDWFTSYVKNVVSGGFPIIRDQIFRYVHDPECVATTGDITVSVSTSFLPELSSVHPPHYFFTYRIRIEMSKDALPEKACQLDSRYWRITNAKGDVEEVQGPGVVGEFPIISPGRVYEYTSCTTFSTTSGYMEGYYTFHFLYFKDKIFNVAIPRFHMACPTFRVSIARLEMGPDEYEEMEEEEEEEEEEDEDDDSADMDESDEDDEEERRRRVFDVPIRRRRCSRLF
The test can be described thus: co-IP; HEK293T transfected with FBXO3 or FBXO3 mutant plasmids, without or with 10 µM nebivolol for 36 h, MG132, IP-Western; endogenous FBXL2.

The target in test [1] is Flag-EGFR (wild-type) (human) (UniProt P00533). The test can be described thus: co-IP; HEK293T co-transfected with EGFR, FBXL2 and Grp94 plasmids for 36 h, one of the competitors in rising dose, MG132 for 4 h, IP-Western.
The target is the same in test [2]. As to the kind of experiment: co-IP; HEK293T co-transfected with the indicated expression plasmids, MG132 for 4 h, anti-HA or anti-Flag beads, IP-Western; in Fig. 5f, g also with shGrp94 or ganetespib (8 nM, 12 h).
The next test concerns the target Flag-EGFR^E931A (human) (UniProt P00533). The test is described as above.

Turning to “endogenous FBXL2 (from UniProt Q9UKC9 1-423)”, the binding entry with FBXO3 was “binds”.
Consider Myc-Grp94 (from UniProt P14625 22-803), for which the binding result (in test [1]; in test [2]; with Flag-EGFR^E931A (human)) was “binds” in each case.
